# Library screening results

Source: ChEMBL document CHEMBL3988442, “University of Dundee, Small-Polar-MMV Screening Library” (2021).

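Viability assay of Plasmodium falciparum sporozoites; the read-out is not stated. The concentration is filed as 10 mM, unlikely as a test dose, so the dose is not known. The record gives no direction; compounds that gave an IC50 in retests scored well above the rest, so higher reads as lower viability. Strong results were mostly tested again. About 34,000 compounds were tested under these conditions; 0.84% (about 280) showed 50% or more at least once.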

Results are given as percent effect. The controls that fix the scale are not given in the record; negative values are as filed. This is an unselected part of the compounds tested. Two or more numbers in one place are separate tests of the same structure; such repeats can differ widely.

| # | SMILES | Percent Effect |
|---|---|---|
| 1 | `CC(C)N1CCc2c(C#N)c(NCc3ccco3)n3cnnc3c2C1` | -14.99% |
| 2 | `CC(=O)N1CCC(N2CC(Cc3nccc4ccn(C)c34)C2)CC1` | -25.4% and -15.53% and 2.252% |
| 3 | `CC(C)c1cc(NC(=O)CN2CCNC(=O)C2)on1` | 2.133% |
| 4 | `CN(C)c1cc(C(=O)N2CCCCC2Cn2cccn2)ccn1` (stereo not shown) | -1.463% |
| 5 | `O=C(O)C(F)(F)F.[H][C@@]12C[C@H](C(=O)N3CCCCO3)CN(CC3CCOCC3)[C@]1([H])CCO2` | 1.976% |
| 6 | `Cc1ccc(C(=O)NCCCNS(C)(=O)=O)cc1-n1cccc1` | -1.691% |
| 7 | `CC(C)NC(=O)N1CCC2(CC(C(=O)NCc3cccnc3)=NO2)C1` (stereo not shown) | -12.88% |
| 8 | `CC(C)S(=O)(=O)NCC1CCCN(C(=O)c2ccc(F)cc2)C1` (stereo not shown) | -9.624% and -7.957% |
| 9 | `C=C(C)CN(CC)C(=O)CN(C)C1CCc2ccccc21` (stereo not shown) | 18.17% |
| 10 | `[H][C@]12CC[C@]([H])(CN(c3nc(C)nc4ccsc34)C1)[C@@H]2OC` | 10.06% |
| 11 | `CC(C)c1nn(C)c(N(C)C)c1CNCc1ccc2c(c1)OCO2` | 5.46% |
| 12 | `CN(C)S(=O)(=O)N1CC(c2ccnc(Nc3ccccn3)n2)C1` | -15.15% |
| 13 | `CCc1nc(C2CCCN2Cc2nnc(CC)o2)no1` (stereo not shown) | 3.567% |
| 14 | `CC(C)CCNc1nc(C(=O)NC2CC2)cs1` | -420.6% and -11.72% and -409.6% |
| 15 | `Cc1cn2c(n1)CCC(NC(=O)c1ccc(CS(C)(=O)=O)cc1)C2` (stereo not shown) | 1.814% |
| 16 | `O=C1NCC2=C1C(c1ccc(O)cc1)Nc1ccccc1N2` (stereo not shown) | -23.23% |
| 17 | `CS(=O)(=O)NCCN1CCCC1c1ccc(Cl)cc1` (stereo not shown) | 1.807% |
| 18 | `COc1ccc(C2CCCCCN2S(=O)(=O)N(C)C)cc1` (stereo not shown) | -1.568% |
| 19 | `CCCNC(=O)CNc1cc(C#N)ccc1OCC` | 5.181% |
| 20 | `CN(C)C(=O)CN1CCCCC1c1nc(N)ncc1-c1ccccc1` (stereo not shown) | -10.5% |
| 21 | `COc1cccc(CN2CCOC(Cn3nc(C)cc3C)C2)c1` (stereo not shown) | -9.245% |
| 22 | `[H][C@@]12CN(C(=O)C3CC=CC3)C[C@]1([H])C(=O)N(Cc1cccc(C)n1)C2` | -3.24% |
| 23 | `CCOc1ncccc1CNC(=O)N1CCCC1c1ccsc1` (stereo not shown) | -0.6985% |
| 24 | `O=C(CN1CCOc2ccc(Cl)cc21)NCCCn1ccnc1` | 11.97% |
| 25 | `[H][C@]12CC[C@]([H])(CN(S(=O)(=O)c3ccc(OC)cc3)C1)N(CCOC)C2=O` | -9.256% |
| 26 | `CS(=O)(=O)N1CCC(n2nnn(-c3ccccc3)c2=O)CC1` | 6.151% |
| 27 | `CC(C)NC(=O)C(C)S(=O)(=O)c1cc2c(cc1Cl)OCCO2` (stereo not shown) | -8.457% |
| 28 | `CCc1[nH]c2c(CNc3cnccn3)cc(F)cc2c1C` | -12.15% |
| 29 | `COCC(=O)N1CCN(CCn2cccn2)c2nc(C)ccc2C1.O=C(O)C(F)(F)F` | 7.456% |
| 30 | `O=C1COc2cc(C(=O)N3CCCC(n4cccn4)C3)ccc2N1` (stereo not shown) | -2.189% |
| 31 | `CN(C)C(=O)COCc1cncc2c1CCN(Cc1cnn(C)c1)C2.O=C(O)C(F)(F)F.O=C(O)C(F)(F)F` | -2.399% |
| 32 | `c1cnc(NCc2noc3c2CN(c2cnccn2)CC3)nc1` | 7.972% |
| 33 | `O=C(O)C(F)(F)F.c1ccc(N2CCCC3(COCCN(c4nccs4)C3)C2)nc1` (stereo not shown) | -13% |
| 34 | `CN1CCN(C2CCN(CCCOc3ccc(F)cc3)CC2)C1=O` | 10.93% |
| 35 | `CCOC(C)c1noc(CN2CCN(c3ccncc3)CC2)n1` (stereo not shown) | -2.487% |
| 36 | `O=C(O)C(F)(F)F.[H][C@]12CCN(C(=O)c3ccncc3F)[C@@]1([H])CC[C@@H](COC)O2` | -0.4614% |
| 37 | `Cn1nccc1-c1cccc(CC2CCN(S(C)(=O)=O)C2)n1` (stereo not shown) | 8.085% |
| 38 | `[H][C@]12CCN(C(=O)c3cc(C)oc3C)C[C@@]1([H])OCCN(C(C)=O)C2` | 0.9143% |
| 39 | `CC(C(=O)NCCN1CCOCC1)n1cncn1` (stereo not shown) | -3.68% |
| 40 | `Cc1ccc(N2CCCC(NCc3ccc4c(c3)CCO4)C2)nn1` (stereo not shown) | 3.091% |
| 41 | `COCC1c2c(cnn2CC2CC2)CCN1Cc1ccsc1.O=C(O)C(F)(F)F.O=C(O)C(F)(F)F` (stereo not shown) | 13.83% |
| 42 | `Cc1nn(C)c(N2CCOCC2)c1CNCc1ccc(Cl)s1` | -20.81% and -18.93% and -24.42% |
| 43 | `O=S(=O)(Cc1ccc(F)cc1)NCc1nnc2n1CCC2` | -2.089% |
| 44 | `Cc1cc(-c2nc(C3(NC(=O)OC(C)(C)C)CCC3)no2)on1` | 0.7786% |
| 45 | `CC1=Nc2c(c(O)nn2C2CCOCC2)C(c2cccnc2)S1` (stereo not shown) | -8.15% |
| 46 | `Cc1ccc(S(=O)(=O)NC(=O)C2(c3ccc(F)cc3)CCC2)c(C)c1` | 3.862% and -0.6241% |
| 47 | `COc1ccccc1[C@@H]1CN(C(=O)c2csc(C)n2)C[C@H]1C(=O)O` | 2.016% |
| 48 | `Cc1nc(CN(C)CC(c2cccs2)N2CCOCC2)no1` (stereo not shown) | 12.13% |
| 49 | `COC(=O)c1ccc(CN[C@@H]2COC[C@H]2Cc2cc(C)no2)cc1.O=C(O)CC(O)(CC(=O)O)C(=O)O` | -9.776% and 10.12% and -18.22% |